Measured values as given in PubChem BioAssay AID504467 (National Center for Advancing Translational Sciences (NCATS), 2011).
About 7,700 (2.3%) of roughly 330,000 compounds were called active. This list was built around the results that the source calls inconclusive (neither active nor inactive); the mix of calls is not that of the screen. Calls follow the shape of the dose curve; as a rule, active = well fitted inhibition curve with a large enough effect; inconclusive = small, poorly fitted or top-dose-only effect, or effect the other way; inactive = flat fitted curve, though single readings scatter. Potencies beside an inconclusive call are fits to weak or partial responses and may not hold up.

assay: qHTS screen for small molecules that inhibit ELG1-dependent DNA repair in human embryonic kidney (HEK293T) cells expressing luciferase-tagged ELG1; conditions: HEK293T ELG1-luciferase reporter, luminescence, 16 h, DNA damage induced by 5-fluorouridine; series mostly up to 46.1 µM; also: nearly all actives have a fitted effect of over 55% in size
Summary of the method: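 Reporter activity after DNA damage by 5-fluorouridine is monitored. Compound-treated cells incubate 16 hr at 37 °C, then ONE-Glo is added for 30 min before luminescence reading.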
Potency is read from the fitted curve at half-maximal effect.

SMILES | Potency
COc1ccc(C)cc1NC(=O)CN1CCN(C/C=C/c2ccccc2)CC1 | active: 20.6 µM
O=C(Nc1ccc(F)cc1)c1ccc(-n2cncn2)c([N+](=O)[O-])c1 | inconclusive: 29.1 µM [inhibitor, single point]
Cc1cccn2c(=O)c(C=O)c(Sc3ncccn3)nc12 | inconclusive: 16.4 µM [activator, single point]
O=c1oc2cc(Br)ccc2n1CSC1=NCCS1 | inconclusive: 0.517 µM [inhibitor, single point]
c1cncc(-c2noc(-c3ccc4ccccc4c3)n2)c1 | inconclusive: 1.83 µM [activator, full curve]
CC(C)c1ccc(C(=O)OCC(=O)c2c(N)n(C)c(=O)n(C)c2=O)cc1 | inconclusive: 23.1 µM [inhibitor, single point]
COc1ccc(C(=O)/C=C/c2ccc3c(c2)OCCO3)cc1 | inconclusive: 29.1 µM [activator, single point]
O=C(NCCN1CCCCC1)c1cc(COc2c(F)cccc2F)on1 | inconclusive: 8.2 µM [activator, partial curve, poor fit]
CCn1cc(C(=O)NCCCN2CCCC(C)C2)c(=O)c2cc(S(=O)(=O)N3CCc4ccccc4C3)ccc21 (configuration not stated) | inactive
CC(=O)c1ccc(OCCCC(=O)Nc2ccc(S(=O)(=O)N3CCOCC3)cc2)cc1 | inconclusive: 9.2 µM [inhibitor, single point]
COC(=O)c1cccc(NC(=O)/C=C/c2ccc([N+](=O)[O-])cc2)c1 | inconclusive: 16.4 µM [inhibitor, partial curve, poor fit]
Cc1ccc(/C=N/NC(=O)c2ccccc2OCc2ccc(F)cc2)o1 | active: 18.4 µM
O=C1[C@H]2[C@@H](c3ccc(F)cc3)N3C(=O)N(c4cccc(Cl)c4)C(=O)[C@@]3(Cc3ccc(Cl)cc3)[C@H]2C(=O)N1C1CCCCC1 | inactive
C(=C\c1nnc(-c2cccs2)o1)/c1ccccc1 | inconclusive: 20 µM [activator, partial curve, poor fit]
Cc1ccc(/C=C(\C#N)C(=O)NCC2CCCO2)o1 (configuration not stated) | inconclusive: 20.6 µM [activator, partial curve]
Cc1cccn2c(CNCC3(c4ccccc4)CCCC3)c(C(=O)N3CCOCC3)nc12 | active: 2.91 µM
CCN1/C(=C/C=C/C=C/C=C/c2sc3ccccc3[n+]2CC)Sc2ccccc21 | inconclusive: 3.66 µM [inhibitor, partial curve]
CC(C)(C)OC(=O)N/N=C\c1cccnc1 | inconclusive: 29.1 µM [activator, single point]
CC(C)(C)NC(=O)c1ccc2c(c1)CCO2 | inactive
COCCC(=O)N1CCC(Oc2ccc(C(=O)N3C[C@H]4CC[C@H]3C4)cc2)CC1 | inactive
CC(=O)Nc1ccc(NC(=O)CC(C)n2ccnc2)cc1 (configuration not stated) | inactive

A draw from above in order of SMILES length, falling.
SMILES | Potency
O=C1[C@H]2[C@@H](c3ccc(F)cc3)N3C(=O)N(c4cccc(Cl)c4)C(=O)[C@@]3(Cc3ccc(Cl)cc3)[C@H]2C(=O)N1C1CCCCC1 | inactive
COCCC(=O)N1CCC(Oc2ccc(C(=O)N3C[C@H]4CC[C@H]3C4)cc2)CC1 | inactive
CC(C)c1ccc(C(=O)OCC(=O)c2c(N)n(C)c(=O)n(C)c2=O)cc1 | inconclusive: 23.1 µM [inhibitor, single point]

Next part

SMILES | Potency
CC(C)CCNC(=O)c1ccc2c(SCC(=O)O)c3c(nc2c1)CCC3 | inconclusive: 18.3 µM [activator, partial curve]
O=C(O)c1cccc(N2C(=O)CSC2=S)c1 | inconclusive: 29.1 µM [activator, single point]
COc1ccccc1CCNC(=O)C(=O)NCCC1CCCCN1S(=O)(=O)c1cccs1 (configuration not stated) | inconclusive: 29.1 µM [inhibitor, single point]
O=C(Nc1ncc(Cl)cc1Cl)c1c(F)cccc1Cl | inconclusive: 18.3 µM [activator, single point]
O=C(C1CC1)N1CCC(c2nc(-c3ccc(S(=O)(=O)N4CCCC4)cc3)no2)CC1 | inconclusive: 18.4 µM [inhibitor, partial curve, poor fit]
Cc1ccc(C)c(S(=O)(=O)N2CCN(C(=O)c3cc(-c4cccs4)nn3-c3ccccc3)CC2)c1 | inconclusive: 23.1 µM [inhibitor, single point]
COc1cc(S(=O)(=O)N2CCC(O)(c3cccc(C(F)(F)F)c3)CC2)ccc1-n1cnnn1 | inconclusive: 8.91 µM [inhibitor, partial curve]
CCOC(=O)c1ccc(N/C=C/C(=O)C(C)(C)C)cc1 | inconclusive: 13 µM [activator, partial curve]
O=C(Nc1nnc(SCc2ccc(F)cc2)s1)C1=COCCO1 | inconclusive: 18.3 µM [activator, partial curve]
CCOc1ccc(Cl)cc1S(=O)(=O)N1CCC(C(=O)NCC2CCCO2)CC1 (configuration not stated) | inactive
CN(CC(=O)Nc1cccc(F)c1)CC(=O)Nc1cccc2ccccc12 | inconclusive: 29.1 µM [inhibitor, single point]
O=C(N/N=C/c1cccnc1)c1[nH]ncc1Br | inconclusive: 20.6 µM [activator, partial curve]
COc1ccc(/C=N/N=C/c2ccc(OC)c(O)c2)cc1O | inactive
CSc1nnc(-c2sc(-c3ccccc3)nc2C)n1C | inconclusive: 20.6 µM [activator, single point]
CCOC(=O)C1CCCN(S(=O)(=O)CCNC(=O)c2ccc3c(c2)OCO3)C1 (configuration not stated) | inactive
Cc1ccc(C(=O)N2CCN(c3ccc(NC(=O)c4ccc(Br)o4)cc3)CC2)cc1 | inconclusive: 18.4 µM [inhibitor, single point]
CC(C)n1nc(C(=O)Nc2cccc(S(=O)(=O)N3CCOCC3)c2)c2ccccc2c1=O | inconclusive: 18.3 µM [inhibitor, single point]
O=C(Nc1ncc(Cc2ccc(C(F)(F)F)cc2)s1)c1ccc(-c2cccc([N+](=O)[O-])c2)o1 | active: 20.6 µM
Cn1c(CN2CCCCC2)nc2cc(NC(=O)c3ccccc3Cl)ccc21 | inconclusive: 11.2 µM [activator, partial curve, poor fit]
COc1cccc(CN(C)C(=O)C(Cc2ccccc2)NC(=O)c2ccccc2)c1OC (configuration not stated) | inconclusive: 23.1 µM [inhibitor, single point]
CC[C@]12c3[nH]c4ccccc4c3CCN1C(=O)C(CC(=O)NCCC1=CCCCC1)C[C@@H]2C(=O)N1CCN(C(=O)c2ccco2)CC1 (some centres not stated) | inconclusive: 20.6 µM [inhibitor, partial curve, poor fit]
